Measured values as given in patent publication US20230046828A1.
These are yes or no findings as the source states them, for the method shown. Some results given as binding are weak or reduced against the parent protein; the word gives no strength.

The chains behind the UniProt entries cited, without tags or fusion partners. Where a name states a change or a piece, a line headed by the entry shows the natural chain unless it says otherwise. Residues count along the entry.
UniProt Q15109, residues 24-344: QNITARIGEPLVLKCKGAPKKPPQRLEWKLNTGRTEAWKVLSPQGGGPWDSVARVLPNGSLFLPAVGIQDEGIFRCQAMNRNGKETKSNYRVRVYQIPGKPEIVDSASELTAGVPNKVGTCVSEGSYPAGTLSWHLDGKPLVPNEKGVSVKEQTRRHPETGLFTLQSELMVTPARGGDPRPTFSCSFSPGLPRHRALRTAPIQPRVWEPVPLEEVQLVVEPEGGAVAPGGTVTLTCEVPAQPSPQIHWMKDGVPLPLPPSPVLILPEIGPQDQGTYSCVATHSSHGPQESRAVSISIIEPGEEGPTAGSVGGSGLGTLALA
UniProt P09429: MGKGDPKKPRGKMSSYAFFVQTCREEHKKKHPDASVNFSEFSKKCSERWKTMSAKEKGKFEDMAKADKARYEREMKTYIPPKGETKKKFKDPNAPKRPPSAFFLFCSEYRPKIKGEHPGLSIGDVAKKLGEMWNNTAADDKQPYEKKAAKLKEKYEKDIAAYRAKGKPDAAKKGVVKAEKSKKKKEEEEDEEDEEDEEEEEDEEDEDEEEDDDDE

Key:
[1] = biological target: RAGE-Fc chimera protein (BioTechne, 1145-RG) (UniProt Q15109); test: RAGE binding ELISA, HMGB1 coated at 40 nM, RAGE-Fc 0-640 nM
[2] = biological target: RAGE-Fc chimera protein (BioTechne, 1145-RG) (UniProt Q15109); test: BLI interferograms: RAGE-Fc on AHC sensors, HMGB1 construct in rising concentration (two series, six sensors)
[3] = biological target: RAGE-Fc chimera protein (BioTechne, 1145-RG) (UniProt Q15109); test: BLI, RAGE-Fc on AHC sensors, HMGB1 construct 0-25 µM
[4] = biological target: RAGE-Fc chimera protein (BioTechne, 1145-RG) (UniProt Q15109); test: hybrid ELISA: HMGB1 construct coated, RAGE-Fc titrated, anti-human IgG-HRP, OD450 normalized to DS-HMGB1
[5] = biological target: RAGE-Fc chimera protein (BioTechne, 1145-RG) (UniProt Q15109); test: BLI: RAGE-Fc on AHC sensors, HMGB1 construct 0-25 µM in solution; response against concentration
[6] = biological target: RAGE-Fc chimera protein (BioTechne, 1145-RG) (UniProt Q15109); test: hybrid ELISA, saturation fits (FIG. 8A)
[7] = biological target: RAGE-Fc chimera protein (BioTechne, 1145-RG) (UniProt Q15109); test: RAGE binding ELISA
[8] = biological target: RAGE-Fc chimera protein (BioTechne, 1145-RG) (UniProt Q15109); test: RAGE binding ELISA and BLI

Measured: binding

DS-HMGB1 1-164 (from UniProt P09429 2-165) (ligand)
binds: [1] | [2] | [3] | [4] | [5]

DS-HMGB1 1-184 (from UniProt P09429 2-185) (ligand)
binds: [1] | [2] | [3] | [4] | [5]

disulfide HMGB1, full-length (from UniProt P09429 2-215) (ligand)
not listed: [8]
binds: all other assays above

fully-reduced HMGB1, full-length (1-214) (from UniProt P09429 2-215) (ligand)
binds: all assays above
